26 molecules from the supplement of paper PMC12542422 can be followed below.

Each structure is given as a SMILES string. Structures can show the parent of a compound that is named as a salt. ± gives the standard deviation of the averaged measurements. The list shows a part of the results. Values are raw readings; no control value is given beside them.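 Across three biological replicates, HeLa cells were imaged for ribosome assembly using ENP1 staining (export block present or absent) or inducible tagged ribosomal protein reporters. Machine learning classified each cell's signal localization relative to DMSO controls. Hits exceeded the DMSO false-positive mean by five standard deviations and were then visually confirmed.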

This assay deals with HeLa RPL29-GFP reporter. The experiment in a line: fraction of reporter-positive cells with nuclear (nucleolar or nucleolar/nucleoplasmic) RPL29-GFP (MainHitrate); higher = more cells with nucleolar/nuclear readout signal (for ENP1 -LMB: less RNAPI inhibition; for +LMB ENP1 and RP reporters: stronger nuclear/nucleolar retention, i.e. ribosome biogenesis defect). The following applies: concentration: 1 µM; treatment time: 6 h.
`CCCSc1nc(N[C@@H]2C[C@H]2c2ccc(F)c(F)c2)c2nnn([C@@H]3C[C@H](OCCO)[C@@H](O)[C@H]3O)c2n1` [Ticagrelor]: the “fraction of reporter-positive cells with nuclear” value (shortened to “fraction”) worked out at 0.218 ± 0.086.

`CC[C@H]1OC(=O)[C@H](C)[C@@H](O[C@H]2C[C@@](C)(OC)[C@@H](O)[C@H](C)O2)[C@H](C)[C@@H](O[C@@H]2O[C@H](C)C[C@H](N(C)C)[C@H]2O)[C@](C)(OC)C[C@@H](C)C(=O)[C@H](C)[C@@H](O)[C@]1(C)O` [Clarithromycin (Biaxin, Klacid)]: the “fraction” value worked out at 0.217 ± 0.092.

On to `CO[C@H]1/C=C/O[C@@]2(C)Oc3c(C)c(O)c4c(O)c(c(/C=N/N5CCN(C6CCCC6)CC5)c(O)c4c3C2=O)NC(=O)/C(C)=C\C=C\[C@H](C)[C@H](O)[C@@H](C)[C@@H](O)[C@@H](C)[C@H](OC(C)=O)[C@@H]1C` [Rifapentine (Priftin)], for which the “fraction” value stood at 0.211 ± 0.052.

Regarding `CNCCc1ccccn1` [Betahistine 2HCl], the “fraction” value was 0.208 ± 0.074.

In the case of `C[C@@H](CN1CC(=O)NC(=O)C1)N1CC(=O)NC(=O)C1` [Dexrazoxane Hydrochloride], the “fraction” value amounted to 0.226 ± 0.079.

As for `CC(=O)Nc1c(I)c(C(=O)N[C@H]2C(O)O[C@H](CO)[C@@H](O)[C@@H]2O)c(I)c(N(C)C(C)=O)c1I` (stereo partly specified) [Metrizamide], the “fraction” value came out at 0.28 ± 0.24.

For the molecule `Cc1nnc(NS(=O)(=O)c2ccc(N)cc2)s1` [Sulfamethizole (Proklar)], the “fraction” value is 0.261 ± 0.14.

For `COc1ccc2c(c1)c(CC(=O)OCC(=O)O)c(C)n2C(=O)c1ccc(Cl)cc1` [Acemetacin (Emflex)], the “fraction” value stood at 0.219 ± 0.061.

Consider `CCN(CC)CCOC(=O)C(c1ccccc1)c1ccccc1` [Adiphenine HCl], for which the “fraction” value came out at 0.22 ± 0.059.

`CCN(CC)CCNC(=O)c1c(C)[nH]c(/C=C2\C(=O)Nc3ccc(F)cc32)c1C` [Sunitinib Malate (Sutent)]: the “fraction” value was 0.224 ± 0.053.

In the case of `Oc1c(Cl)cc(Cl)c2cccnc12` [Chloroxine], the “fraction” value is 0.229 ± 0.097.

With `N#Cc1ccc(C(c2ccc(C#N)cc2)n2cncn2)cc1` [Letrozole], the “fraction” value was determined as 0.207 ± 0.074.

`Cc1ccc(N(CC2=NCCN2)c2cccc(O)c2)cc1` [Phentolamine mesilate]: the “fraction” value is 0.223 ± 0.061.

Take `CC(=O)[C@H]1CC[C@H]2[C@@H]3CC=C4C[C@@H](O)CC[C@]4(C)[C@H]3CC[C@]12C` [Pregnenolone]: the “fraction” value came out at 0.232 ± 0.091.

`Nc1ccc(S(N)(=O)=O)cc1` [Sulfanilamide]: the “fraction” value amounted to 0.209 ± 0.043.

Turning to `CC[C@]1(O)C[C@H]2CN(CCc3c([nH]c4ccccc34)[C@@](C(=O)OC)(c3cc4c(cc3OC)N(C=O)[C@H]3[C@@](O)(C(=O)OC)[C@H](OC(C)=O)[C@]5(CC)C=CCN6CC[C@]43[C@@H]65)C2)C1` [Vincristine], the “fraction” value amounted to 0.33 ± 0.15.

On to `OCC(CO)N[C@H]1C[C@](O)(CO)[C@@H](O)[C@H](O)[C@H]1O` [Voglibose], for which the “fraction” value stood at 0.195 ± 0.078.

Regarding `O=C(c1ccccc1)c1ccc2n1CCC2C(=O)O` (stereo unspecified) [Ketorolac (Toradol)], the “fraction” value came out at 0.22 ± 0.073.

Regarding `CCC(=O)OCC(=O)[C@@]1(OC(=O)CC)[C@@H](C)C[C@H]2[C@@H]3CCC4=CC(=O)C=C[C@]4(C)[C@@]3(F)[C@@H](O)C[C@@]21C` [Betamethasone Dipropionate (Diprolene)], the “fraction” value came to 0.266 ± 0.038.

Turning to `CC[C@H]1OC(=O)C[C@@H](O)[C@H](C)[C@@H](O[C@@H]2O[C@H](C)[C@@H](O[C@H]3C[C@@](C)(O)[C@@H](O)[C@H](C)O3)[C@H](N(C)C)[C@H]2O)[C@@H](CC=O)C[C@@H](C)C(=O)/C=C/C(C)=C/[C@@H]1CO[C@@H]1O[C@H](C)[C@@H](O)[C@@H](OC)[C@H]1OC` [Tylosin tartrate], the “fraction” value was found to be 0.208 ± 0.092.

Consider `CN(C)[C@@H]1C(O)=C(C(=O)NCN2CCCC2)C(=O)[C@@]2(O)C(O)=C3C(=O)c4c(O)cccc4[C@@](C)(O)[C@H]3C[C@@H]12` [Rolitetracycline], for which the “fraction” value was 0.299 ± 0.28.

As to `Cc1ncc([N+](=O)[O-])n1CC(O)CCl` (stereo unspecified) [Ornidazole], the “fraction” value is 0.213 ± 0.087.

For `O=c1[nH]c(=O)n([C@H]2C[C@H](O)[C@@H](CO)O2)cc1I` [Idoxuridine], the “fraction” value worked out at 0.216 ± 0.05.

For `CC[C@H](C)C(=O)O[C@H]1C[C@H](O)C=C2C=C[C@H](C)[C@H](CC[C@@H](O)C[C@@H](O)CC(=O)O)[C@H]21` [Pravastatin sodium], the “fraction” value came to 0.196 ± 0.045.

As to `C#CCC(Cc1cnc2nc(N)nc(N)c2n1)c1ccc(C(=O)N[C@@H](CCC(=O)O)C(=O)O)cc1` (stereo partly specified) [Pralatrexate (Folotyn)], the “fraction” value was 0.174 ± 0.039.

Take `CN(C(=O)CN(CCO)CC(=O)N(C)C(C)(C)Cc1ccccc1)C(C)(C)Cc1ccccc1` [Oxethazaine]: the “fraction” value was 0.305 ± 0.28.
